These are yes or no findings as the source states them, for the method shown. Binding seen in cells or lysates may run through a third protein. Here binding means that the protein was enriched with, or labelled near, the bait; the list need not be complete.
Biological target: desmoplakin (human (endogenous in HaCaT)) (UniProt P15924)
Assay: affinity purification with mass spectrometry

By UniProt entry, the sequences of proteins in these tests, tags left out.
UniProt P15924: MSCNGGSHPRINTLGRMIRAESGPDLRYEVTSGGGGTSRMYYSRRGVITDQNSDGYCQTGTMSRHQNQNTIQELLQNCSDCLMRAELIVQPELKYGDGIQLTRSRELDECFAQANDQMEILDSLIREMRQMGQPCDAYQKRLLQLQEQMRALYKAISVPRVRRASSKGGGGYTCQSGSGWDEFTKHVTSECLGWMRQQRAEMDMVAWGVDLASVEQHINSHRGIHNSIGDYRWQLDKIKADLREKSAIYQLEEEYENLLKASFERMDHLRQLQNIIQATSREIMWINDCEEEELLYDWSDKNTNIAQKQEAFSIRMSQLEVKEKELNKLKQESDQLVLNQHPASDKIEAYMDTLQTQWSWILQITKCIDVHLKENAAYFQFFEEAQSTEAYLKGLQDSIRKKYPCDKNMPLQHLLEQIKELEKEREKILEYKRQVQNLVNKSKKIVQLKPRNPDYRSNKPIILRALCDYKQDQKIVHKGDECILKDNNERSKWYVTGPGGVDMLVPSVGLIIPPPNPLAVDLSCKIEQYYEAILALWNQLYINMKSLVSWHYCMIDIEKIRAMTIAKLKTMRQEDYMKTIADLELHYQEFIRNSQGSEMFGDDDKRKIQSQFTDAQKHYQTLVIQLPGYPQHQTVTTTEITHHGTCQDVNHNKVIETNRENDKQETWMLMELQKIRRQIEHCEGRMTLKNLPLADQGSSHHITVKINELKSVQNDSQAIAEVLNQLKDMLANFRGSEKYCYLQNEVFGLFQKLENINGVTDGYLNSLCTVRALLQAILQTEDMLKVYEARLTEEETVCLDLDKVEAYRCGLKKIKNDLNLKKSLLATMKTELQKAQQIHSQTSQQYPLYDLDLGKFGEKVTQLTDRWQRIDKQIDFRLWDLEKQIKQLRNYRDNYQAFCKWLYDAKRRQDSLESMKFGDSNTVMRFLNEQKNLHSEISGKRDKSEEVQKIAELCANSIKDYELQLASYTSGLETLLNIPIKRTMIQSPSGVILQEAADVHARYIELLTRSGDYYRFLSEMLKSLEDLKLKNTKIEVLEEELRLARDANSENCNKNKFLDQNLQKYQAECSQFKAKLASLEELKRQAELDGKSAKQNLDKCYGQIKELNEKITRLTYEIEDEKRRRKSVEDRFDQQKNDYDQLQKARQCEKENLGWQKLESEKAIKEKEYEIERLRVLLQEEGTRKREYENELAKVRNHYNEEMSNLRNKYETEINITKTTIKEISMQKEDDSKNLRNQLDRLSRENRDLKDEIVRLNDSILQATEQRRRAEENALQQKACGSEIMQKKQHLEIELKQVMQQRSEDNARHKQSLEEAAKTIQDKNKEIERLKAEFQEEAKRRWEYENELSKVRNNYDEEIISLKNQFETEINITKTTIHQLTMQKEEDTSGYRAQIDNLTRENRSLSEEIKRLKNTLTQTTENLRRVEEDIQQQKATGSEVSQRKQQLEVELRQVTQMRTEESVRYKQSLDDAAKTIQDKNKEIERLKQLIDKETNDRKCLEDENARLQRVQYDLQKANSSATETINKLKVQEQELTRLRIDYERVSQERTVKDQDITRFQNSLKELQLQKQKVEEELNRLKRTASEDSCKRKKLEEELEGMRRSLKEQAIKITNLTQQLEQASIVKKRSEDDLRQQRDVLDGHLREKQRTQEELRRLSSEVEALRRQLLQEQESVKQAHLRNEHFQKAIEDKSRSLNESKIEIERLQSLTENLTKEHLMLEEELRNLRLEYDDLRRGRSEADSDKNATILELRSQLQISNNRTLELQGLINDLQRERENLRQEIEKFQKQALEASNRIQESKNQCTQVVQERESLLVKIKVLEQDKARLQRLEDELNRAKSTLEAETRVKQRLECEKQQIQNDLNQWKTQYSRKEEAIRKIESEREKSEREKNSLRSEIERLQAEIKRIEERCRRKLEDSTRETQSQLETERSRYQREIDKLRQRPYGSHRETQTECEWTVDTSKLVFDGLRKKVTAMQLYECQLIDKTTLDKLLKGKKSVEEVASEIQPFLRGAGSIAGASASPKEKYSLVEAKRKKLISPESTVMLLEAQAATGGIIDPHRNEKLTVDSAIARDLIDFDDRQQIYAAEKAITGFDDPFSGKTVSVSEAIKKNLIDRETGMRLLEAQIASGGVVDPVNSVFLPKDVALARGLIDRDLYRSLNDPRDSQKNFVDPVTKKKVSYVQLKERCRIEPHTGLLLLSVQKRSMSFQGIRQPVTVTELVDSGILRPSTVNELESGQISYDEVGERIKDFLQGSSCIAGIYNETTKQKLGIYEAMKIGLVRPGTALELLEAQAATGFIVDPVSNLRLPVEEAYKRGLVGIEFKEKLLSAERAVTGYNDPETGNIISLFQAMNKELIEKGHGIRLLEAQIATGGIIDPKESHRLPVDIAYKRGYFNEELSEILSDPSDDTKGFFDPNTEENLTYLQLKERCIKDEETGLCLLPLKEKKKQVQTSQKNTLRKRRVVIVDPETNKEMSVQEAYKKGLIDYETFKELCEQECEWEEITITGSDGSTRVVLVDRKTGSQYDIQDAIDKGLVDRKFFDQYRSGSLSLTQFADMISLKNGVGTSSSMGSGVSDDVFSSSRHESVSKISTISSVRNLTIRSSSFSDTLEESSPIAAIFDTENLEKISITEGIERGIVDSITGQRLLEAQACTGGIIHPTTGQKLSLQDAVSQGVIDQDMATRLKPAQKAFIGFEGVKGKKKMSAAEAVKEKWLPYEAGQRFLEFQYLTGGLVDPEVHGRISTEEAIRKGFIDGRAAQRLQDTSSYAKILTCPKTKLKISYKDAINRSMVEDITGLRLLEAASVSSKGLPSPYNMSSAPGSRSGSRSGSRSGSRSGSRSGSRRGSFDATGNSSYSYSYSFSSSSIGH

binding: binds
B1: SERPINB5 (protein, UniProt P36952 1-375)
chain: MDALQLANSAFAVDLFKQLCEKEPLGNVLFSPICLSTSLSLAQVGAKGDTANEIGQVLHFENVKDVPFGFQTVTSDVNKLSSFYSLKLIKRLYVDKSLNLSTEFISSTKRPYAKELETVDFKDKLEETKGQINNSIKDLTDGHFENILADNSVNDQTKILVVNAAYFVGKWMKKFSESETKECPFRVNKTDTKPVQMMNMEATFCMGNIDSINCKIIELPFQNKHLSMFILLPKDVEDESTGLEKIEKQLNSESLSQWTNPSTMANAKVKLSIPKFKVEKMIDPKACLENLGLKHIFSEDTSDFSGMSETKGVALSNVIHKVCLEITEDGGDSIEVPGARILQHKDELNADHPFIYIIRHNKTRNIIFFGKFCSP
